Record: PubChem BioAssay AID743448 (Peter MacCallum Cancer Centre, 2014)

Aim: 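Third-round triage of 106 confirmed candidates in four colon lines under two drugs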 (follow-up of hits)
Cell system: four human colon cancer cell lines: HCT116-VR (vorinostat-resistant HCT116 derivative), SW480, SW620 and LIM1215
Knock-down reagent: siRNA pool against human genes, 40 nM siRNA pool
Time to read-out: drug added two days after transfection, read one day later
Treatment: vorinostat 2.5 µM on one half of each plate, etoposide 5 µM on the other half
Cell line and drug panel: SW620 cells with vorinostat
Read-out: 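Caspase luminescence and viability fluorescence, each expressed relative to mock transfection and also as robust z-scores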
Reading the numbers: caspase ratio to mock: higher = more caspase activity than mock; viability ratio to mock: higher = more live cells than mock
Active means: 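Hit means caspase ratio to mock at least 1.6, or viability ratio to mock at most 0.75; wells with strong death in the absence of drug get no call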
Meaning of the calls: active = caspase or viability hit in this panel; inactive = no change, or unhealthy well
This is an unselected part of the 106 reagents, in one setting of the screen. 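Calls are per line and drug panel including etoposide, not vorinostat-specific; gene picks needed hits in two or more extra lines with vorinostat versus etoposide.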 Entries without a mark were called inactive. Further read-outs or replicates are left out here.

{"target": "EIF2S1 (GeneID 1965)", "caspase ratio to mock": 0.94, "viability ratio to mock": 0.86}
{"target": "POLR2I (GeneID 5438)", "caspase ratio to mock": "1.9 (active)", "viability ratio to mock": 1.01}
{"target": "IRX2-DT (GeneID 153571)", "caspase ratio to mock": "1.73 (active)", "viability ratio to mock": 1.08}
{"target": "SEMA4F (GeneID 10505)", "caspase ratio to mock": 1.56, "viability ratio to mock": 0.82}
{"target": "UTP3 (GeneID 57050)", "caspase ratio to mock": 1.44, "viability ratio to mock": 0.89}
{"target": "VAX1 (GeneID 11023)", "caspase ratio to mock": 1.3, "viability ratio to mock": 0.84}
{"target": "PSMD4 (GeneID 5710)", "caspase ratio to mock": 1.58, "viability ratio to mock": 0.92}
{"target": "ZNF441 (GeneID 126068)", "caspase ratio to mock": 1.35, "viability ratio to mock": 0.88}

Next part (2 carried over from the part before).
{"target": "PSMD4 (GeneID 5710)", "caspase ratio to mock": 1.58, "viability ratio to mock": 0.92}
{"target": "ZNF441 (GeneID 126068)", "caspase ratio to mock": 1.35, "viability ratio to mock": 0.88}
{"target": "CNOT1 (GeneID 23019)", "caspase ratio to mock": "1.82 (active)", "viability ratio to mock": 0.87}
{"target": "DPPA5 (GeneID 340168)", "caspase ratio to mock": "1.77 (active)", "viability ratio to mock": 1.03}
{"target": "GPER1 (GeneID 2852)", "caspase ratio to mock": 1.17, "viability ratio to mock": 0.83}
{"target": "NUP58 (GeneID 9818)", "caspase ratio to mock": 1.04, "viability ratio to mock": 0.84}
{"target": "PRRT3 (GeneID 285368)", "caspase ratio to mock": 1.21, "viability ratio to mock": 0.98}
{"target": "C22orf15 (GeneID 150248)", "caspase ratio to mock": "1.86 (active)", "viability ratio to mock": 0.98}
{"target": "SAP130 (GeneID 79595)", "caspase ratio to mock": 1.2, "viability ratio to mock": 0.97}
{"target": "POLR2G (GeneID 5436)", "caspase ratio to mock": "2.13 (active)", "viability ratio to mock": 0.84}
{"target": "EIF3I (GeneID 8668)", "caspase ratio to mock": "0.72 (active)", "viability ratio to mock": 0.72}
{"target": "NUP62 (GeneID 23636)", "caspase ratio to mock": 1.06, "viability ratio to mock": 0.76}
{"target": "GLI1 (GeneID 2735)", "caspase ratio to mock": 1.3, "viability ratio to mock": 0.97}
